PubChem BioAssay AID1224827, NIAID – 2016
Test: 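Retest primary hits on a TNF reporter with six siRNAs per gene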 (follow-up of hits). Cells: RAW264.7 G9 mouse macrophage reporter clone. Reagents: single siRNA against mouse genes, 100 nM siRNA. Time to read-out: siRNA for 2 days, then LPS about 16 h. Challenge: bacterial lipopolysaccharide (LPS), 10 ng/ml, cells fixed after overnight (about 16 h) stimulation. Measured: 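Imaged nuclear TNF reporter intensity, background removed, scaled per plate and to non-targeting control wells, as z-scores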. Scale: TNF reporter z-score, mean: higher = stronger Tnf promoter reporter signal; gene median z, three same-vendor siRNAs: higher = stronger Tnf reporter signal for the gene. Hit rule: 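An siRNA is called active when its mean z-score over replicates is at least +2 or at most -2; control wells get no call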.
This is an unselected part of about 3,800 reagents. Of all reagents, about 2,200 (57%) got an active call. 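Active means a strong reporter change in either direction; calls are per siRNA, not per gene; qiagen siRNAs gave weaker effects.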 A number with no mark means an inactive call. Reagents against one gene are numbered here. Not all columns of the deposit are shown.

| Target gene | siRNA no. | TNF reporter z-score, mean | gene median z, three same-vendor siRNAs |
| --- | --- | --- | --- |
| Polr2d | 1 | -4.17 (active) | -4.57 |
| Polr2d | 2 | -4.22 (active) | -4.57 |
| Polr2d | 3 | -5.06 (active) | -4.57 |
| Polr2d | 4 | 0.296 | -2.31 |
| Polr2d | 5 | -0.319 | -2.31 |
| Polr2d | 6 | -4.97 (active) | -2.31 |
| Pmaip1 | 1 | 3.36 (active) | -0.0597 |
| Pmaip1 | 2 | -0.0597 | -0.0597 |
| Pmaip1 | 3 | -2.84 (active) | -0.0597 |
| Pmaip1 | 4 | 3.13 (active) | 1.91 |
| Pmaip1 | 5 | 2.62 (active) | 1.91 |
| Pmaip1 | 6 | 1.5 | 1.91 |
| Or4a68 | 1 | -1.78 | -3.08 |
| Or4a68 | 2 | -2.19 (active) | -3.08 |
| Or4a68 | 3 | -4.73 (active) | -3.08 |
| Or4a68 | 4 | 3.69 (active) | -1.8 |
| Or4a68 | 5 | -1.8 | -1.8 |
| Or4a68 | 6 | -3.83 (active) | -1.8 |
| Lyrm2 | 1 | 2.3 (active) | -1.25 |
| Lyrm2 | 2 | -1.25 | -1.25 |
| Lyrm2 | 3 | -3.14 (active) | -1.25 |
| Lyrm2 | 4 | 1.38 | -1.69 |
| Lyrm2 | 5 | -1.38 | -1.69 |
| Lyrm2 | 6 | -3.67 (active) | -1.69 |
| Hsd17b6 | 1 | -2.02 (active) | -2.46 |
| Hsd17b6 | 2 | -2.32 (active) | -2.46 |
| Hsd17b6 | 3 | -4.7 (active) | -2.46 |
| Hsd17b6 | 4 | 1.1 | -0.541 |
| Hsd17b6 | 5 | 0.271 | -0.541 |
| Hsd17b6 | 6 | -2.36 (active) | -0.541 |
| Tjp3 | 1 | -0.473 | -3.45 |
| Tjp3 | 2 | -3.84 (active) | -3.45 |
| Tjp3 | 3 | -4 (active) | -3.45 |
| Tjp3 | 4 | 2.82 (active) | -0.791 |
| Tjp3 | 5 | -1.09 | -0.791 |
| Tjp3 | 6 | -1.99 | -0.791 |
| Krtap9-1 | 1 | -2.22 (active) | -2.81 |
| Krtap9-1 | 2 | -2.91 (active) | -2.81 |
| Krtap9-1 | 3 | -3 (active) | -2.81 |
| Krtap9-1 | 4 | 1.63 | -0.472 |
| Krtap9-1 | 5 | 0.104 | -0.472 |
| Krtap9-1 | 6 | -2.04 (active) | -0.472 |
| Arpc2 | 1 | 1.5 | -0.658 |
| Arpc2 | 2 | -0.658 | -0.658 |
| Arpc2 | 3 | -1.85 | -0.658 |
| 1700001G17Rik | 1 | 0.423 | -1.65 |
| 1700001G17Rik | 2 | -1.65 | -1.65 |
| 1700001G17Rik | 3 | -2.66 (active) | -1.65 |
| 1700001G17Rik | 4 | 4.97 (active) | 0.0848 |
| 1700001G17Rik | 5 | 0.0848 | 0.0848 |
| 1700001G17Rik | 6 | -1.86 | 0.0848 |
| Mrps5 | 1 | -2.89 (active) | -3.33 |
| Mrps5 | 2 | -3.63 (active) | -3.33 |
| Mrps5 | 3 | -4.16 (active) | -3.33 |
| Mrps5 | 4 | 4.07 (active) | 1.07 |
| Mrps5 | 5 | 3.96 (active) | 1.07 |
| Mrps5 | 6 | -2.5 (active) | 1.07 |

No new results follow: 3 of the entries above.
| Target gene | siRNA no. | TNF reporter z-score, mean | gene median z, three same-vendor siRNAs |
| --- | --- | --- | --- |
| Polr2d | 2 | -4.22 (active) | -4.57 |
| Polr2d | 3 | -5.06 (active) | -4.57 |
| Polr2d | 4 | 0.296 | -2.31 |
